Test results as given in the supplement of paper PMC9233669.
This sample is rich in variants without activity.

Columns and labels:
biotinyl-Phe-oxazolone = experiment: self-aminoacylation, catalytic enhancement (BFO) (fold over background); higher = more active; k-Seq, kA / k0A0; sequences stand for … in GGGAAUGGAUCCACAUCUACGAAUUC…UUCACUGCAGACUUGACGAAGCUG
In short: (§1)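 Catalytic enhancement equals the median kA over the uncatalyzed rate, the latter read from the low-activity peak of a bimodal Gaussian fit. Values of kA came from fitting each sequence's fraction reacted to a pseudo-first-order model, with 1000 bootstraps. Reacted RNA was captured with streptavidin and quantified by triplicate qPCR and Illumina sequencing after 90 minutes at room temperature with 2–1250 μM biotinyl-aminoacyl-oxazolone and 0.43 μM mutagenized RNA pools bearing a 21-nt variable region.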

biotinyl-Trp-oxazolone = experiment: self-aminoacylation, catalytic enhancement (BWO) (fold over background); higher = more active; k-Seq, kA / k0A0; sequences stand for … in GGGAAUGGAUCCACAUCUACGAAUUC…UUCACUGCAGACUUGACGAAGCUG
In short: as §1

biotinyl-Leu-oxazolone = experiment: self-aminoacylation, catalytic enhancement (BLO) (fold over background); higher = more active; k-Seq, kA / k0A0; sequences stand for … in GGGAAUGGAUCCACAUCUACGAAUUC…UUCACUGCAGACUUGACGAAGCUG
In short: as §1

biotinyl-Ile-oxazolone = experiment: self-aminoacylation, catalytic enhancement (BIO) (fold over background); higher = more active; k-Seq, kA / k0A0; sequences stand for … in GGGAAUGGAUCCACAUCUACGAAUUC…UUCACUGCAGACUUGACGAAGCUG
In short: as §1

biotinyl-Met-oxazolone = experiment: self-aminoacylation, catalytic enhancement (BMO) (fold over background); higher = more active; k-Seq, kA / k0A0; sequences stand for … in GGGAAUGGAUCCACAUCUACGAAUUC…UUCACUGCAGACUUGACGAAGCUG
In short: as §1

biotinyl-Val-oxazolone = experiment: self-aminoacylation, catalytic enhancement (BVO) (fold over background); higher = more active; k-Seq, kA / k0A0; sequences stand for … in GGGAAUGGAUCCACAUCUACGAAUUC…UUCACUGCAGACUUGACGAAGCUG
In short: as §1

Row | Sequence | self-aminoacylation (biotinyl-Phe-oxazolone) | self-aminoacylation (biotinyl-Trp-oxazolone) | self-aminoacylation (biotinyl-Leu-oxazolone) | self-aminoacylation (biotinyl-Ile-oxazolone) | self-aminoacylation (biotinyl-Met-oxazolone) | self-aminoacylation (biotinyl-Val-oxazolone)
1 | CUAUUGCAAACAAUCGGUCUG [Fam1A.1 aminoacylation ribozyme variant] | 0.887 | 0.775 | 0.874 | 0.842 | 0.922 | 0.862
2 | AAGUUUGCUUAUAGUCGUAAG [Fam3.1 aminoacylation ribozyme variant] | 1.12 | 0.779 | 0.795 | 0.703 | 0.817 | 0.856
3 | UCACACUUCAAGCAAUCGGGC [Fam1B.1 aminoacylation ribozyme variant] | 0.995 | 1.2 | 1.25 | 1.55 | 1.2 | 1.75
4 | CCACACUUCAAGCAGUCGGUU [Fam1B.1 aminoacylation ribozyme variant] | 0.656 | 1.23 | 1.1 | 1.34 | 1.53 | 1.63
5 | CCGCACUUCAAGCAGUCGGUC [Fam1B.1 aminoacylation ribozyme variant] | 1.44 | 1.4 | 1.15 | 1.08 | 1.26 | 1.51
6 | AUUCACCUAGGUCAUCGGAUC [Fam2.2 aminoacylation ribozyme variant] | 0.396 | 0.463 | 0.638 | 0.649 | 0.841 | 0.85
7 | CUACUUCAAACAAUCGUUCUA [Fam1A.1 aminoacylation ribozyme variant] | 1.08 | 0.631 | 0.559 | 0.582 | 0.545 | 0.801
8 | CCACACUUCAAGCACUCGUUC [Fam1B.1 aminoacylation ribozyme variant] | 0.914 | 0.582 | 0.587 | 0.793 | 0.671 | 0.995
9 | AGGUUUGCUAUUAGUCGCAAG [Fam3.1 aminoacylation ribozyme variant] | 3.21 | 1.08 | 1.49 | 1.28 | 1.17 | 1.17
10 | AUUCACCUAGGUCAUCUGGUU [Fam2.2 aminoacylation ribozyme variant] | 0.914 | 0.629 | 1.15 | 1.13 | 1.04 | 1.03
11 | AAGUUUGCUACUAGGCGCAAG [Fam3.1 aminoacylation ribozyme variant] | 1.84 | 0.564 | 0.68 | 0.653 | 0.709 | 0.64
12 | AAGUUUGCUAAUAGUCACAGG [Fam3.1 aminoacylation ribozyme variant] | 1.66 | 1.29 | 1.07 | 1.32 | 1.32 | 1.33
13 | CCACUUCAAACAAUCGGUUUG [Fam1A.1 aminoacylation ribozyme variant] | 80.3 | 39.5 | 2.57 | 1.39 | 1.37 | 1.83
14 | CCACACUCCAAGCAAUCGAUC [Fam1B.1 aminoacylation ribozyme variant] | 1.27 | 0.365 | 0.575 | 0.788 | 0.495 | 0.843
15 | CUAUUUCAAACAAUCGUUCUG [Fam1A.1 aminoacylation ribozyme variant] | 0.744 | 0.469 | 0.587 | 0.621 | 0.601 | 0.637
16 | CUACUUCAAACACACGGUCUG [Fam1A.1 aminoacylation ribozyme variant] | 0.72 | 0.995 | 0.894 | 0.967 | 0.715 | 0.853
17 | AUUACCCUGGUCAUCGAGCUA [Fam2.1 aminoacylation ribozyme variant] | 1.85 | 1.05 | 1.35 | 1.35 | 1.59 | 1.27
18 | GUACUUCUAACAAUCGGUCUG [Fam1A.1 aminoacylation ribozyme variant] | 1.66 | 1.41 | 1.09 | 1.21 | 0.93 | 1.15
19 | AUUCACCUAGGUCAUGGGUUG [Fam2.2 aminoacylation ribozyme variant] | 1.84 | 0.665 | 0.639 | 0.74 | 0.842 | 0.871
20 | AAGUUUGCUAAUAGUCACAAU [Fam3.1 aminoacylation ribozyme variant] | 1.14 | 1.11 | 0.82 | 1.18 | 1.18 | 1.19
21 | AAGUUUGAUAAUAUUCGCAAG [Fam3.1 aminoacylation ribozyme variant] | 1.31 | 1.23 | 1.28 | 1.39 | 1.38 | 1.05
22 | CCACACUUCUAGUAAUCGGUC [Fam1B.1 aminoacylation ribozyme variant] | 0.781 | 0.464 | 0.661 | 0.782 | 0.619 | 0.789
23 | AUUCCCCUAGGUUAUCGGGUG [Fam2.2 aminoacylation ribozyme variant] | 187 | 20 | 27.6 | 12.9 | 20 | 13.3
24 | AUUACCCUGGUCAUCAAGCGA [Fam2.1 aminoacylation ribozyme variant] | 0.84 | 0.661 | 0.895 | 0.846 | 1 | 1.13
25 | CCACACUUCAGGGAAUCGGUC [Fam1B.1 aminoacylation ribozyme variant] | 0.965 | 1.7 | 1.45 | 1.5 | 1.46 | 1.46
26 | AUACUUCAAACCAUCGGUCUG [Fam1A.1 aminoacylation ribozyme variant] | 0.887 | 1.07 | 0.902 | 1.1 | 0.774 | 0.917
